Like-named read-outs stand apart in the source and are kept apart here. Results are given in words; binding and its absence hold for the method and conditions named. Binding seen in cells or lysates may run through a third protein. These calls come from enrichment with a bait or labelling near it, and not all partners need be listed.
Experiments:
[1] = molecular target: TOPBP1 (endogenous) (human (endogenous in HEK293TN)) (UniProt Q92547); experiment: affinity purification with mass spectrometry
[2] = molecular target: TOPBP1 (endogenous) (human (endogenous in HEK293TN)) (UniProt Q92547); experiment: affinity purification with mass spectrometry; remark: listed apart in the source

The chains behind the UniProt entries cited, without tags or fusion partners.
UniProt Q92547: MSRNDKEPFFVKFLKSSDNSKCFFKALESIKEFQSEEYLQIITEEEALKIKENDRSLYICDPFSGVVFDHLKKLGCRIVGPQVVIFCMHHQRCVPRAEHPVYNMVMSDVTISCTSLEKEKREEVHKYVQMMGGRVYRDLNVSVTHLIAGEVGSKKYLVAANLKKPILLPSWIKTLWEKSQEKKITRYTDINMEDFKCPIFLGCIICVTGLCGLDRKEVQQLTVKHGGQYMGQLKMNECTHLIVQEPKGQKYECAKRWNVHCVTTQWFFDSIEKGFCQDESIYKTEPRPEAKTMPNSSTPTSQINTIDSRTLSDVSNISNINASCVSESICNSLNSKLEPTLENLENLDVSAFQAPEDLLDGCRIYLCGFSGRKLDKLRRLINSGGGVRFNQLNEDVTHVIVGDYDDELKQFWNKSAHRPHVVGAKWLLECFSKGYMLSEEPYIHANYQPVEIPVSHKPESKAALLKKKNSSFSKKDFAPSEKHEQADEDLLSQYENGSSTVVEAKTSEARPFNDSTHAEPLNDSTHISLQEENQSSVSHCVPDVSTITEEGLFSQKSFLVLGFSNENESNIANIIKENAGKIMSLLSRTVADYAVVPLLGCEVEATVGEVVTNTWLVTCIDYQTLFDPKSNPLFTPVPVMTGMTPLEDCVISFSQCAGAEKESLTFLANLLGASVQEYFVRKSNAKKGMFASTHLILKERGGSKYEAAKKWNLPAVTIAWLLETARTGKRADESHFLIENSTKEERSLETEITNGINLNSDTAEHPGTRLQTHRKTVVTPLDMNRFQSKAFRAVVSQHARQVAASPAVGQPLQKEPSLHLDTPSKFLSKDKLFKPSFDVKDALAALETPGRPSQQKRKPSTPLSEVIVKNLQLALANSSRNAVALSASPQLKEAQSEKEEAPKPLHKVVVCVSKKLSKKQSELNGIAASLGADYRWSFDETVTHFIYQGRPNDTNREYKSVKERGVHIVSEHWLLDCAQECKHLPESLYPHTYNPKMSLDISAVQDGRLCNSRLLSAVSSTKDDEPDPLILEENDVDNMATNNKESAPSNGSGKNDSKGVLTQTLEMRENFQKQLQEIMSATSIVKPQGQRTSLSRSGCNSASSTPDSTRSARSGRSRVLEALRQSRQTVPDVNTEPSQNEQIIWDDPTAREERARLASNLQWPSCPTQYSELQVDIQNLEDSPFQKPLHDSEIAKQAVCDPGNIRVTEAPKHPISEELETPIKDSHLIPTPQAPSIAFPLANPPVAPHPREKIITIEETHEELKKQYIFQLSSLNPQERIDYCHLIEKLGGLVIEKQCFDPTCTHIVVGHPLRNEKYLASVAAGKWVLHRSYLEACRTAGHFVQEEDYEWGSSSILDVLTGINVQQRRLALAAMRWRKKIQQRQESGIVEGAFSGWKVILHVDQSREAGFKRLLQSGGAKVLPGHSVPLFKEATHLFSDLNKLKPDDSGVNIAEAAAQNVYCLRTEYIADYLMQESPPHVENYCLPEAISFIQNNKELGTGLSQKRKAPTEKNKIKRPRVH
UniProt Q8IY92: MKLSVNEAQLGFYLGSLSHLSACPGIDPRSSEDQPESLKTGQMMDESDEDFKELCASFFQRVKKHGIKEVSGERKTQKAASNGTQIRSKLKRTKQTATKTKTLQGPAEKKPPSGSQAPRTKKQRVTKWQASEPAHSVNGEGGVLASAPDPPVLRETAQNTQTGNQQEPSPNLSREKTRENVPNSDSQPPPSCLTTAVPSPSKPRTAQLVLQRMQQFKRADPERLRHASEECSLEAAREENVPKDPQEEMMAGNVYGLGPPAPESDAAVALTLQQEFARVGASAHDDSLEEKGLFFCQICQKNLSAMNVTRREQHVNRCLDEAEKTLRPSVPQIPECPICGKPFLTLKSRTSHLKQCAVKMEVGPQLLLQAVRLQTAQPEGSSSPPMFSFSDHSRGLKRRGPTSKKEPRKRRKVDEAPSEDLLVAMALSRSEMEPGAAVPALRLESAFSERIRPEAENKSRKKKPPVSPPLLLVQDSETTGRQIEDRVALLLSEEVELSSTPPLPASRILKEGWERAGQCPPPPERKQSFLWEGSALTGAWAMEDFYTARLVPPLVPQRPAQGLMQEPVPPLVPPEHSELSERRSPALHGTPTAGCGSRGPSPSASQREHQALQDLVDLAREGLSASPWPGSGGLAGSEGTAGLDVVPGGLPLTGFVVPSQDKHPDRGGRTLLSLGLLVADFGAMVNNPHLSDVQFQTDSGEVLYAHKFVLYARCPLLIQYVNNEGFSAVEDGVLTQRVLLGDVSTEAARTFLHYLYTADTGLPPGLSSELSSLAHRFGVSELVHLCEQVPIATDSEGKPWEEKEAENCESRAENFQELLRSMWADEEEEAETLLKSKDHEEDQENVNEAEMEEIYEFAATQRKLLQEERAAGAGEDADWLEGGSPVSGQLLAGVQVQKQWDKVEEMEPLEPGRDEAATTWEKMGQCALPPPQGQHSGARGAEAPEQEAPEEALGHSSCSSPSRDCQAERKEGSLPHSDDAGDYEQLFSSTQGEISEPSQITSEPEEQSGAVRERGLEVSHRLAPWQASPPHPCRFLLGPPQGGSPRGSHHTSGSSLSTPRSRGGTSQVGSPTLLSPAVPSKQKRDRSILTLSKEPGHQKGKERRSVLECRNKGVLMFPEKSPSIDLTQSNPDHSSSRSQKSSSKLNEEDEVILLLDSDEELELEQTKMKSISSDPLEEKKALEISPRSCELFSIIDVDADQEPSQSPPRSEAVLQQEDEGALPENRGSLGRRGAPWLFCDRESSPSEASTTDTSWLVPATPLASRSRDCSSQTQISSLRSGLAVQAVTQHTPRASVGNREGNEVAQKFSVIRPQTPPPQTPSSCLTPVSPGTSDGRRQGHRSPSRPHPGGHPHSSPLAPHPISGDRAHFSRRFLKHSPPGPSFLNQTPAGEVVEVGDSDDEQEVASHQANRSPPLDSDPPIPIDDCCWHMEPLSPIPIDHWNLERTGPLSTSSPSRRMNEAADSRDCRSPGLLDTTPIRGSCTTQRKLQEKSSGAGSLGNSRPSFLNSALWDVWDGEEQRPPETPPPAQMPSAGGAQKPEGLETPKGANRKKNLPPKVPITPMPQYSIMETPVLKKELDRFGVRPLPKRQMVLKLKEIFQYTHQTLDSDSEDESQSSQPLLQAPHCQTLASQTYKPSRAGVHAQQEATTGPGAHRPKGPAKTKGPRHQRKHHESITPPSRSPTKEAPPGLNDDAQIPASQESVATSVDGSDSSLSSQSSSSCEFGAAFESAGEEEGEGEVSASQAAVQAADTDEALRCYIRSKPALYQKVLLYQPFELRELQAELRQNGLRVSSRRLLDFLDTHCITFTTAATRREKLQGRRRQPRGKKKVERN
UniProt Q5VYV7: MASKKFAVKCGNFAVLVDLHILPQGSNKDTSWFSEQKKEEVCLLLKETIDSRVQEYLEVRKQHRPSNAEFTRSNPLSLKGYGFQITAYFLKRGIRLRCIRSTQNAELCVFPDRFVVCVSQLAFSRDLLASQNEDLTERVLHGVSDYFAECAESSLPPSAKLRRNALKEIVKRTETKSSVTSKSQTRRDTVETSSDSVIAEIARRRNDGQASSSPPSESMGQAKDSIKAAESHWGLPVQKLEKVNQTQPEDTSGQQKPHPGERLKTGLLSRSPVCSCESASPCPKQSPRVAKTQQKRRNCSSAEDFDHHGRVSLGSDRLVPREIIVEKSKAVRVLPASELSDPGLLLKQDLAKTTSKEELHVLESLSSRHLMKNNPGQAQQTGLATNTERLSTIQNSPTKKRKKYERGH

In the case of “SLX4 (endogenous) (from UniProt Q8IY92 1-1834)”, the binding [1] is reported as “binds” and the binding [2] is reported as “binds”.
In the case of “SLX4IP (endogenous) (from UniProt Q5VYV7 1-408)”, the binding [2] is reported as “binds”.
